From doi:10.1101/2021.09.06.459192 come the findings set out here.

The chains behind the UniProt entries cited, without tags or fusion partners. Where a name states a change or a piece, a line headed by the entry shows the natural chain unless it says otherwise.
UniProt Q05022: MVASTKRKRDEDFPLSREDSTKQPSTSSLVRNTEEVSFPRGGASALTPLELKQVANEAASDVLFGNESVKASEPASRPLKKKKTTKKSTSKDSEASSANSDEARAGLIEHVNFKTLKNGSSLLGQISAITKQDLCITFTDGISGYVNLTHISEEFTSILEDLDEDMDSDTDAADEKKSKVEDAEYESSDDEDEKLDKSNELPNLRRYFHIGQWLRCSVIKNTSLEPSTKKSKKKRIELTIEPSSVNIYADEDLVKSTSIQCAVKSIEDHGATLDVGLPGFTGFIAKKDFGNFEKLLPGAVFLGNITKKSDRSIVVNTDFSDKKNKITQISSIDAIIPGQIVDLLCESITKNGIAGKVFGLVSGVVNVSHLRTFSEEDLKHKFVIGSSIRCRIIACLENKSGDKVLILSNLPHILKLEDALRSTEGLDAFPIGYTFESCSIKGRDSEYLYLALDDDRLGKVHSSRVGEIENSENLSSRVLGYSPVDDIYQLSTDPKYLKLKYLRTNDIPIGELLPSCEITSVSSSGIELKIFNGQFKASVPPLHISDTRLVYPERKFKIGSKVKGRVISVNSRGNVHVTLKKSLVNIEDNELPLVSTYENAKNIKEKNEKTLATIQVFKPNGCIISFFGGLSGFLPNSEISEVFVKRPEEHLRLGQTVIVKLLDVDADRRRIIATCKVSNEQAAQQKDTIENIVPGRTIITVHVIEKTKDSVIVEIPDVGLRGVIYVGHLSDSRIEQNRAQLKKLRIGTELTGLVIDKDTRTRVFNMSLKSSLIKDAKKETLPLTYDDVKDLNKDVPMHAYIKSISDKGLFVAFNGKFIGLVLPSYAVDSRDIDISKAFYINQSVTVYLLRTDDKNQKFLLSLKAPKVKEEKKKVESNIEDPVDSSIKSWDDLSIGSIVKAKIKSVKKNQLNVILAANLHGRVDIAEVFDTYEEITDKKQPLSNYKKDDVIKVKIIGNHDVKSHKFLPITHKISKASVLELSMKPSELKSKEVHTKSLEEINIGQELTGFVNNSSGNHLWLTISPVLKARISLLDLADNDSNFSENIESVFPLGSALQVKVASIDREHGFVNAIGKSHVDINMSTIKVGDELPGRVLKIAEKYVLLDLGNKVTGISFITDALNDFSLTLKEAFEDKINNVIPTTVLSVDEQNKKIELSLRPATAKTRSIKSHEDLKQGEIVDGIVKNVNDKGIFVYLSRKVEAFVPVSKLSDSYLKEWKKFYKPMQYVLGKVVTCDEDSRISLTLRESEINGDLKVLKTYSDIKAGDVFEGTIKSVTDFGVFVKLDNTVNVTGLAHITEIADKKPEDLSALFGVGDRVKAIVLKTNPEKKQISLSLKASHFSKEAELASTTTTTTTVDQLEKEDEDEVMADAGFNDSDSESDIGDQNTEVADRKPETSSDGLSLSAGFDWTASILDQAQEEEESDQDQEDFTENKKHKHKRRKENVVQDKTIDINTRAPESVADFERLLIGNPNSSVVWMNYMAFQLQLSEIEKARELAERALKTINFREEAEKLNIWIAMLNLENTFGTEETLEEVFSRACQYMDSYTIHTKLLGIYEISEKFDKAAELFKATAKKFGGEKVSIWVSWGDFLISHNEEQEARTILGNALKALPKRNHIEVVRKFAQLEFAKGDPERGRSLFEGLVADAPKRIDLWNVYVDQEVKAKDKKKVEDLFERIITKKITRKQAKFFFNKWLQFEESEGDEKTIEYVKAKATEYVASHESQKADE

Results are given in words; binding and its absence hold for the method and conditions named. Binding can be weak; no strength is given. Where a sequence is shown, tags or fusion partners need not be part of it.

For this assay, the target named is T1, MBP-Rrp36, recombinant (S. cerevisiae) (UniProt Q12481).
T1 sequence: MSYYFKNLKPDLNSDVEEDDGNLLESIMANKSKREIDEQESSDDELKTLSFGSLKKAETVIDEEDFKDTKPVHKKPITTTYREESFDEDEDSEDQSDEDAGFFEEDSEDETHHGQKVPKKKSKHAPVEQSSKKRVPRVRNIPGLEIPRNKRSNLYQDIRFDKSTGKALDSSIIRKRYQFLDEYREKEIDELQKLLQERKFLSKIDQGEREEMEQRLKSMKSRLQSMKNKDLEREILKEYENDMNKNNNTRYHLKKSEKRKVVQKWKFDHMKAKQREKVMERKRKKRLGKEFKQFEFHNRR
Nature of the assay: pull-down.
Regarding “Rrp5_ΔS1 (Rrp5 lacking the first S1 domain), recombinant (S. cerevisiae) (domain or fragment)”, the binding entry is recorded as “no binding (tested: 3 μM)”.
With “Rrp5_S1 (first S1 domain of Rrp5 alone), recombinant (from UniProt Q05022) (domain or fragment)”, the binding entry is “binds”.
Consider “Rrp5_ΔS1-2 (Rrp5 lacking the first two S1 domains), recombinant (S. cerevisiae) (domain or fragment)”, for which the binding entry was “no binding (tested: 3 μM)”.
